Data from patent publication US12187782B2, “PDL1 peptides for use in cancer vaccines” (IO BIOTECH APS, priority 2016, dated 2025).
At least one peptide structure holds a part that was inferred or is arguable (an end, a ring closure or a residue). Residues, ends and D or L forms follow the SMILES beside them.

Legend:
[1] = system: tumor-infiltrating lymphocytes from 12 melanoma patients; assay: IFNγ ELISPOT on tumor-infiltrating lymphocytes (Example 1); assay type: cell-based, human; settings: tumor-infiltrating lymphocytes cultured with peptide
[2] = system: tumor-infiltrating lymphocytes; assay: Intracellular IFNγ/TNFα staining of tumor-infiltrating lymphocytes cultured with peptide; assay type: cell-based, human; settings: 5 hours with peptide

In the case of `CC[C@H](C)[C@H](NC(=O)[C@H](C)NC(=O)CNC(=O)[C@H](CC(C)C)NC(=O)[C@@H](NC(=O)[C@@H](N)C(C)C)[C@@H](C)CC)C(=O)N[C@@H](CC(C)C)C(=O)N[C@@H](CC(C)C)C(=O)N[C@@H](CS)C(=O)N[C@@H](CC(C)C)C(=O)NCC(=O)N[C@H](C(=O)N[C@@H](C)C(=O)N[C@@H](CC(C)C)C(=O)N[C@H](C(=O)N[C@@H](Cc1ccccc1)C(=O)N[C@H](C(=O)N[C@@H](Cc1ccccc1)C(=O)N[C@@H](CCCNC(=N)N)C(=O)N[C@@H](CC(C)C)C(=O)N[C@@H](CCCNC(=N)N)C(=O)N[C@@H](CCCCN)C(=O)NCC(=O)O)[C@@H](C)CC)[C@@H](C)O)C(C)C` [PDLong2] (H-VILGAILLCLGVALTFIFRLRKG-OH; N-terminus and C-terminus assumed), the “T cell response, IFNγ ELISPOT” value [1] is reported as “increased T cell response” and the “T cell response by intracellular cytokine staining” value [2] is reported as “confirmed”.
